No constants are given. Whether binding was seen depends on the method and setting. Binding seen in cells or lysates may run through a third protein. Binding calls can cover weak binding; strength is not graded here.
Molecular target: TglH (Pseudomonas syringae pv. maculicola ES4326)
Test: crystal structure; co-expressed, co-purified TglHI without iron (apoTglHI), with two (TglHI-2Fe) and three Fe ions (TglHI-3Fe); sitting-drop vapor diffusion at 16 °C; 0.2 M potassium sodium tartrate tetrahydrate, 20% w/v PEG 3350; both purified

The chains behind the UniProt entries cited, without tags or fusion partners. Where a name states a change or a piece, a line headed by the entry shows the natural chain unless it says otherwise.
UniProt A0A8T8BZN3: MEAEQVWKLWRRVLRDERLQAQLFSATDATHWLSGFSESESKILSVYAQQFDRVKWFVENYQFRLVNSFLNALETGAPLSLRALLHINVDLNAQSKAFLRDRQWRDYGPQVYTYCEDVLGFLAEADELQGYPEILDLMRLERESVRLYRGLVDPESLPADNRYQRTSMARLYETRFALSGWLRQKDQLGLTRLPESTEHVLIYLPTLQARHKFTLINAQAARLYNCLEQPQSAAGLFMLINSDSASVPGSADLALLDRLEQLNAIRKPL

## TglI (from UniProt A0A8T8BZN3)
  binding: binds
